# Experimental data taken from PubChem BioAssay AID1347076 (National Center for Advancing Translational Sciences (NCATS), 2019).
# About 13,000 (3.2%) of roughly 400,000 compounds were called active. This list was built around the results that the source calls inconclusive (neither active nor inactive); the mix of calls is not that of the screen. Calls follow the shape of the dose curve; as a rule, active = well fitted cell-killing curve with a large enough effect; inconclusive = small, poorly fitted or top-dose-only effect, or effect the other way; inactive = flat fitted curve, though single readings scatter. A potency beside an inconclusive call is a rough fit, not a confirmed value.
# Test: qHTS assay for MDR1-selective chemotherapeutics: Primary screen using the drug-selected MDR subline cells KB-V1; also: nearly all actives have a fitted effect of over 60% in size
# Settings: KB-V1 MDR cells viability, CellTiter-Glo, 72 h; activity change, negative = cytotoxicity: at 46.1 µM (top of the series)
# Summary of the method: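 Compound-treated KB-V1 multidrug-resistant cells, 72 h, 37 degrees C; viability by CellTiter-Glo. Fitted qHTS curves give the values.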
# % is scaled to controls: 0 for no effect and ±100 for the full control effect; potency is read from the fitted curve at half-maximal effect.
Structure (SMILES),Potency,"activity change, negative = cytotoxicity"
CN(C)Cc1csc(NC(=O)Nc2cccc(Cl)c2)n1,inactive,
Cc1sc2ncnc(N3CCC(C(=O)Nc4ccc(OC(F)F)c(Cl)c4)CC3)c2c1C,inactive,
N#C/C(=C\c1cc2ccccc2nc1N1CCOCC1)C(=O)Nc1ccc(N2CCOCC2)cc1,"inconclusive: 2.31 µM [cytotoxic, partial curve]",
O=c1[nH]c2cc3c(cc2cc1CN(Cc1ccco1)C(=S)NCC1CCCO1)OCCO3 (stereo not given),"inconclusive: 20.6 µM [cytotoxic, single point]",
N#Cc1ccc(NC(=O)Cn2cnc(S(=O)(=O)N3CCCC3)c2)cc1,"inconclusive: 16.4 µM [rising, single point]",
NS(=O)(=O)c1ccc(N/N=C/c2ccncc2)cc1,"inconclusive: 8.2 µM [rising, partial curve, poor fit]",
NC(N)=N/N=C(\N=Nc1ccccc1)c1ccc(Cl)cc1,"inconclusive: 29.1 µM [cytotoxic, single point]",
CC(C)CNS(=O)(=O)c1ccc(OCC(=O)Nc2ccc3c(c2)OCCO3)cc1,"inconclusive: 16.4 µM [cytotoxic, partial curve]",
Cc1ccc(C)c(NC(=O)C(=O)NCCc2csc3nc(-c4ccccc4C)nn23)c1,"inconclusive: 25.9 µM [cytotoxic, single point]",
Cc1ccc(OCCC(=O)OCC(=O)NC2CCCC(C)C2C)cc1 (stereo not given),,inconclusive: -11.7%
COc1ccc(S(=O)(=O)N2CCOCC2)cc1N(C)S(=O)(=O)c1ccc(C)cc1,"inconclusive: 25.9 µM [cytotoxic, single point]",
CCOP(=O)(OCC)c1nc(-c2ccc(C)cc2)oc1NCc1ccccc1,"inconclusive: 3.66 µM [cytotoxic, partial curve]",
COc1cc(O)c(C(CCN2CCN(c3ccccc3)CC2)c2ccc(N(C)C)cc2)c(OC)c1 (stereo not given),"inconclusive: 29.1 µM [cytotoxic, single point]",
COc1cccc(-c2ccc(NC(=O)C3CCCN(Cc4nccn4C)C3)cc2)c1 (stereo not given),"inconclusive: 5.8 µM [cytotoxic, partial curve]",
CCCCC(NC(C)=O)c1nc2ccccc2n1CCC (stereo not given),active: 20.6 µM,
CCSCCC(NC1=CC(=O)CC(C)(C)C1)C(=O)O (stereo not given),"inconclusive: 20.6 µM [rising, single point]",
COc1ccccc1NS(=O)(=O)c1cc([N+](=O)[O-])ccc1N/N=C/c1c(C)[nH]c2ccccc12,inactive,
Cc1c(C(c2cccc([N+](=O)[O-])c2O)c2c(C)n(C)n(-c3ccccc3)c2=O)c(=O)n(-c2ccccc2)n1C,"inconclusive: 29.1 µM [cytotoxic, single point]",
O=C(Nc1ccccc1C(=O)Nc1ccc(Br)cn1)c1cccc([N+](=O)[O-])c1,inactive,
O=C(NCc1ccc(F)cc1)c1cnccn1,"inconclusive: 5.8 µM [rising, full curve]",
COc1ccc(-c2oc(NC(=O)CCl)c(C#N)c2-c2ccc(OC)cc2)cc1,"inconclusive: 29.1 µM [cytotoxic, single point]",
CCOC(=O)c1[nH]c2ccccc2c1NC(=S)Nc1ccccc1,"inconclusive: 2.59 µM [rising, partial curve, poor fit]",
CC(=O)C1=C(O)C(=O)N(c2ccc(O)cc2)C1c1ccccc1Cl (stereo not given),inactive,
CC(C)(C)c1ccc(C(=O)Nc2cccc([N+](=O)[O-])c2)cc1,active: 11.6 µM,

# Four entries out of the list, ordered by molecular weight, falling:
Structure (SMILES),Potency,"activity change, negative = cytotoxicity"
COc1cc(O)c(C(CCN2CCN(c3ccccc3)CC2)c2ccc(N(C)C)cc2)c(OC)c1 (stereo not given),"inconclusive: 29.1 µM [cytotoxic, single point]",
O=c1[nH]c2cc3c(cc2cc1CN(Cc1ccco1)C(=S)NCC1CCCO1)OCCO3 (stereo not given),"inconclusive: 20.6 µM [cytotoxic, single point]",
N#Cc1ccc(NC(=O)Cn2cnc(S(=O)(=O)N3CCCC3)c2)cc1,"inconclusive: 16.4 µM [rising, single point]",
CCOC(=O)c1[nH]c2ccccc2c1NC(=S)Nc1ccccc1,"inconclusive: 2.59 µM [rising, partial curve, poor fit]",

# The results go on:

Structure (SMILES),Potency,"activity change, negative = cytotoxicity"
Cc1ccc2[nH]c(=O)c(CN(CC3CCCO3)S(=O)(=O)c3c(C)ccc4nsnc34)cc2c1 (stereo not given),active: 6.51 µM,
C=C(C)C(=O)Nc1cccc(C2=NOC3(C2)C[C@H](C(N)=O)N(C(=O)COc2ccc(Cl)cc2)C3)c1 (stereo not given in full),"inconclusive: 29.1 µM [rising, single point]",
CCc1cccc(NC(=O)CCNC(=O)Cn2ccc3ccccc3c2=O)c1,"inconclusive: 10.3 µM [rising, partial curve]",
CCOC(=O)N1CCC(NC(=O)CS(=O)(=O)Cc2nc(-c3cccc(Cl)c3)oc2C)CC1,inactive,
O=C(CCC1N=C2c3ccccc3N=C(SCc3ccc(Cl)cc3)N2C1=O)NCc1ccco1 (stereo not given),active: 6.51 µM,
CC(OC(=O)c1ccc(S(=O)(=O)N2CCCCC2)cc1)C(=O)NC1CCCCC1C (stereo not given),inactive,
COc1ccc(C(=O)NNC(=O)CSc2nc(C(C)C)nc3ccccc23)cc1,inactive,
COc1ccc2ncc3c(-c4ccc(C)c(C)c4)nn(CC(=O)NC4CCCCC4)c3c2c1,inactive,
Cc1ccc(NS(=O)(=O)c2ccc(NC(=O)CSc3ccc(Cl)cc3)cc2)c(C)c1,inactive,
COc1ccc(CCN(C)C(=O)COc2ccc(C(=O)c3ccccc3)cc2)cc1OC,inactive,
O=[N+]([O-])c1[nH]cnc1/C=C/c1ccccc1,"inconclusive: 18.4 µM [cytotoxic, single point]",
Cc1c(NC(=O)COC(=O)c2cc(-c3ccc(-c4ccccc4)cc3)nc3ccccc23)c(=O)n(-c2ccccc2)n1C,active: 4.61 µM,
CCn1c(SCC(=O)Nc2ccccc2F)nnc1-c1ccoc1C,"inconclusive: 23.1 µM [cytotoxic, single point]",
COc1ccc2nc3sc(C(=O)NCCCN4CCc5ccccc5C4)cc3cc2c1,active: 5.8 µM,
CC(C)CC1C(=O)N(Cc2cn(Cc3ccco3)nn2)CCS(=O)(=O)N1Cc1ccc(-c2ccc(F)cc2)cc1 (stereo not given),"inconclusive: 25.9 µM [cytotoxic, single point]",
Cc1ccsc1C(=O)OCC(=O)N1C(C)CCCC1C (stereo not given),"inconclusive: 9.2 µM [cytotoxic, partial curve]",
COc1cccc(C(=O)NC(=S)N2CCN(c3ccc(C(F)(F)F)cc3[N+](=O)[O-])CC2)c1,"inconclusive: 9.2 µM [cytotoxic, partial curve, poor fit]",
CCCCn1cc(S(=O)(=O)c2ccc(F)cc2)c(=O)c2ccccc21,inactive,
COc1ccc(C(=O)Nc2ccccc2C(=O)N/N=C/c2ccco2)cc1,inactive,
CC(O)[C@H]1CNCCN1CC1(c2ccccc2)CC1 (stereo not given in full),"inconclusive: 29.1 µM [rising, single point]",
COc1ccc(N(Cc2cccs2)C(=O)COc2ccc(C(C)C)cc2)cc1,"inconclusive: 29.1 µM [cytotoxic, partial curve, poor fit]",
N#CCn1cnc2c(oc3ccccc32)c1=O,"inconclusive: 6.51 µM [rising, partial curve, poor fit]",
Cc1cc(F)ccc1NC(=O)C1CCCN(S(=O)(=O)c2ccc3c(c2)CCCC(=O)N3)C1 (stereo not given),inactive,
COC(=O)[C@@]1(C)[C@H]2C(=O)N(C)C(=O)[C@H]2[C@H]2CN=C(SCc3ccc(Cl)cc3)N21,inactive,

Structure (SMILES),Potency,"activity change, negative = cytotoxicity"
COC(=O)c1cc(C)sc1NC(=O)C1C2C=CC(CC2)C1C(=O)O (stereo not given),"inconclusive: 16.4 µM [cytotoxic, partial curve, poor fit]",
c1ccc(OCCSc2ncnc3nc[nH]c23)cc1,,inconclusive: -45.7% [cytotoxic]
COc1ccc(CCN=C(C)C2=C(O)C(c3ccccc3)OC2=O)cc1OC (stereo not given),"inconclusive: 11.6 µM [cytotoxic, partial curve]",
COc1cccc(NC(=O)Cc2cn(C)c3ccccc23)c1,"inconclusive: 20.6 µM [cytotoxic, partial curve]",
C[C@H](NC(=O)c1ccccc1)C(=O)Nc1nc(-c2ccccn2)cs1,"inconclusive: 5.8 µM [cytotoxic, partial curve]",
Cc1cnc2c(c1SCC(=O)Nc1ccc(F)cc1F)c(=O)n(C)c(=O)n2C,inactive,
NCC1CCN(c2nc3ccccc3c3c2CCCC3)CC1,active: 14.6 µM,
O=C(O)c1nccnc1C(=O)NCc1csc2ccc(Cl)cc12,"inconclusive: 18.4 µM [rising, single point]",
O=C(CCN=C1NS(=O)(=O)c2ccccc21)OCc1cccc(Cl)c1,inactive,
Cc1cccc(/C(N)=N/OC(=O)c2ccco2)c1,"inconclusive: 32.6 µM [rising, partial curve, poor fit]",
COc1ccc(CCNC(=O)C2CCN(C(=O)c3ccc(Cl)cc3)CC2)cc1,inactive,
COCCCNC(=O)Cc1c(C)c2c(cc(C)c3c(C)c(C)oc32)oc1=O,"inconclusive: 16.4 µM [cytotoxic, partial curve]",
CC(=O)C1=C(O)C(=O)N(Cc2cccnc2)C1c1ccccc1Cl (stereo not given),"inconclusive: 20.6 µM [rising, single point]",
O=C1CC(N(CCc2ccccc2)C(=S)Nc2ccccc2)C(=O)N1c1ccc(Br)cc1 (stereo not given),"inconclusive: 20.6 µM [cytotoxic, single point]",
CN(c1ccc(C(=O)N2CCOCC2)cc1[N+](=O)[O-])C1CCCCC1,active: 23.1 µM,
Cc1ccc2[nH]c(CSc3nnc(COc4ccccc4C)n3C)cc(=O)c2c1,inactive,
Cc1ccc(-n2c(=O)c3ccc(C(=O)NCc4ccccc4Cl)cc3n(CC(=O)Nc3cccc(F)c3)c2=O)cc1,"inconclusive: 2.91 µM [rising, full curve, poor fit]",
Cc1ccc(C(=O)NNC(=O)OC(C)(C)C)c(Cl)c1,inactive,
CCCCNc1c(-c2ccc(OC)c(SC3CCCCC3)c2)nc2ccc(C)cn12,"inconclusive: 32.6 µM [cytotoxic, single point]",
Cc1cccc(NC(=O)c2ccc(N3CCCCC3)c([N+](=O)[O-])c2)n1,active: 5.17 µM,
COc1cccc(CNC(=O)CN2C(=O)CSc3c2c(C)nn3-c2ccccc2)c1,inactive,
O=C(CNC(=O)[C@@H]1Cc2ccccc2CN1)Nc1ccc2c(c1)OCO2,"inconclusive: 7.31 µM [rising, partial curve]",
